Data as given in publication PMC5602324.
No constants are given. Whether binding was seen depends on the method and setting. A result given as binding can be weak or reduced; the word gives no strength.

Experiments:
[1] = molecular target: β-tubulin (within the microtubule) (bovine); test: cryo-EM structure; MKLP2-MD with 2 mM AMPPNP on paclitaxel-stabilised MTs (13-protofilament); BRB20/BRB80; both purified
[2] = molecular target: paclitaxel-stabilised microtubules (polymerised αβ-tubulin) (bovine); test: as above
[3] = molecular target: α-tubulin (within the microtubule) (bovine); test: as above
[4] = molecular target: β-tubulin (within the microtubule) (bovine); test: cryo-EM structure; MKLP2-MD with 2 mM ADP + AlF4 (ADP.AlFx) on paclitaxel-stabilised MTs (13-protofilament); BRB20/BRB80; both purified
[5] = molecular target: paclitaxel-stabilised microtubules (polymerised αβ-tubulin) (bovine); test: as above
[6] = molecular target: α-tubulin (within the microtubule) (bovine); test: as above
[7] = molecular target: β-tubulin (within the microtubule) (bovine); test: cryo-EM structure; MKLP2-MD without nucleotide (apyrase 10 units/ml) on paclitaxel-stabilised MTs (13-protofilament); BRB20/BRB80; both purified
[8] = molecular target: paclitaxel-stabilised microtubules (polymerised αβ-tubulin) (bovine); test: as above
[9] = molecular target: α-tubulin (within the microtubule) (bovine); test: as above
[10] = molecular target: β-tubulin (within the microtubule) (bovine); test: cryo-EM structure; MKLP2-MD with 2 mM ADP on GMPCPP, paclitaxel-stabilised MTs (14-protofilament); BRB20/BRB80; both purified
[11] = molecular target: paclitaxel-stabilised microtubules (polymerised αβ-tubulin) (bovine); test: as above
[12] = molecular target: α-tubulin (within the microtubule) (bovine); test: as above

Measured: binding

B1: MKLP2 motor domain, construct 25–520 (domain or fragment, UniProt P97329 25-520)
chain: ESTAADLRSVVRKDLLSDCSVISASLEDKQALLEDTSEKVKVYLRIRPFLTSELDRQEDQGCVCIENTETLVLQAPKDSFALKSNERGVGQATHKFTFSQIFGPEVGQVAFFNLTMKEMVKDVLKGQNWLIYTYGVTNSGKTYTIQGTSKDAGILPQSLALIFNSLQGQLHPTPDLKPLLSNEVIWLDSKQIRQEEMKKLSLLIGGLQEEELSTSVKKRVHTESRIGASNSFDSGVAGLSSTSQFTSSSQLDETSQLWAQPDTVPVSVPADIRFSVWISFFEIYNELLYDLLEPPSHQHKRQTLRLCEDQNGNPYVKDLNWIHVRDVEEAWKLLKVGRKNQSFASTHMNQQSSRSHSIFSIRILHLQGEGDIVPKISELSLCDLAGSERCKHQKSGERLKEAGNINTSLHTLGRCIAALRQNQQNRSKQNLIPFRDSKLTRVFQGFFTGRGRSCMIVNVNPCASTYDETLHAAKFSALASQLVHAPPVHLGIPSLH
binds: all assays above
